Data taken from PMC9286316 (ACS Chemical Biology, 2021).

Test: general procedure: Fmoc solid-phase peptide synthesis
Conditions: oxidative folding step, 280 nm

Substance	final HPLC purity
PEPTIDE1{G.L.P.V.C.G.E.T.C.V.G.G.T.C.N.T.P.G.C.K.C.S.W.P.V.C.T.R.N}$PEPTIDE1,PEPTIDE1,1:R1-29:R2|PEPTIDE1,PEPTIDE1,5:R3-9:R3|PEPTIDE1,PEPTIDE1,14:R3-19:R3|PEPTIDE1,PEPTIDE1,21:R3-26:R3$$$V2.0	93.2%
PEPTIDE1{G.L.P.V.C.G.E.T.C.V.G.G.T.C.N.T.P.G.C.K.C.S.W.P.V.C.T.R.N}$PEPTIDE1,PEPTIDE1,1:R1-29:R2|PEPTIDE1,PEPTIDE1,5:R3-19:R3|PEPTIDE1,PEPTIDE1,9:R3-26:R3|PEPTIDE1,PEPTIDE1,14:R3-21:R3$$$V2.0	93.2%
PEPTIDE1{G.L.P.V.C.G.E.T.C.V.G.G.T.C.N.T.P.G.C.K.C.S.W.P.V.C.T.R.N}$PEPTIDE1,PEPTIDE1,1:R1-29:R2|PEPTIDE1,PEPTIDE1,5:R3-26:R3|PEPTIDE1,PEPTIDE1,9:R3-21:R3|PEPTIDE1,PEPTIDE1,14:R3-19:R3$$$V2.0	91.0%
PEPTIDE1{N.G.L.P.V.C.G.E.T.C.V.G.G.T.C.N.T.P.G.C.K.C.S.W.P.V.C.T.R}$PEPTIDE1,PEPTIDE1,6:R3-20:R3|PEPTIDE1,PEPTIDE1,10:R3-22:R3|PEPTIDE1,PEPTIDE1,15:R3-27:R3$$$V2.0	> 90%

HELM strings list residues between dots; [ac] is acetyl, [am] amide, other brackets name non-standard units.
